Laboratory results: patent US20220162304A1
No constants are given. Whether binding was seen depends on the method and setting. Some entries that bind do so weakly or less than the wild type.

Chains of the proteins cited; added tags and fusions are not shown. Residues count along the entry.
UniProt P40259, residues 29-159: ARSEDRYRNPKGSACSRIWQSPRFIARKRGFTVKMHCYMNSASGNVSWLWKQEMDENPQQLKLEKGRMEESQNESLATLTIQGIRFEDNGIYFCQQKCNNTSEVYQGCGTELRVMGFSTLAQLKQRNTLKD

Columns and labels:
[1] = target: human CD79B antigen (coating antigen of the ELISA, construct not stated) (human) (UniProt P40259); test: ELISA, plate coated with antigen at 1 ug/mL, serial antibody dilutions, OD450
[2] = target: human CD79B antigen (coating antigen of the ELISA, construct not stated) (human) (UniProt P40259); test: ELISA, purified antibody from 100 nM (1:10 dilutions) on plate coated with antigen 1 µg/mL
[3] = target: fusion protein of human CD79B extracellular domain (ECD) and His tag (human CD79B ECD-His) (human) (UniProt P40259); test: SPR etc.

Row | Binder | binding [1] | binding [2] | binding [3]
1 | murine hybridoma monoclonal antibody mAb015 (antibody, V domains shown) VH: QVQLQQSGAELARPGASVKLSCKASGSSFTSYGINWVKQRTGQGLEWIGEIFPRSGNTYYNEKFEGKATLTADKSSSTAYMELRSLTSEDSAVYFCAKGDLGDFDYWGQGTTLTVSS VL: DFLMTQTPLSLPVRLGDQASISCRSSQSIVHSDGNTYFEWYLQKPGQSPKLLIYKVSNRFSGVPDRFSGSGSGTDFTLKISRVEAEDLGVYYCFQGSHVPWTFGGGTKLEIK | binds | binds | 
2 | murine hybridoma monoclonal antibody mAb016 (antibody, V domains shown) VH: QVQLQQSGAELARPGASVKLSCKASGYIFTNYGIIWVKQRTGQGLEWIGDIFPGSGNTYYNENFKGKATLTADKSSSTAYMELRSLTSEDSAVYFCSRGELGDFDYWGQGTTLTVSS VL: VVLMTQTPLSLPVSLGDQASISCRSSQNIVHSDGTTYLEWYLQKPGQSPKLLIYKVSNRFSGVPDRFSGSGSGTDFTLKISRVEAEDLGIYYCFQGSHVPWTFGGGTKLEIK | binds | binds | 
3 | murine hybridoma monoclonal antibody mAb017 (antibody, V domains shown) VH: QVQLQQSGAELARPGASVKLSCKASGYTFTTYGINWVKQRTGQGLEWIGEIYPRSGNIYYNEKFKGKATLTADKSSSTAYMELRSLTSEDSAVYFCARGSDYDGDFAYWGQGTLVTVSA VL: DVLMTQTPLSLPVSLGDQASISCRSSQSIVHHDGNTYLEWYLQKPGQSPKLLIYKVSNRFSGVPDRFSGSGSGTDFTLKISRVEAEDLGVYYCFQGSHVPWTFGGGTQLEIK | binds | binds | 
4 | humanized antibody hAb015 (antibody, human IgG1, kappa, V domains shown) VH: EVQLVQSGAEVKKPGSSVKVSCKASGSSFSSYGINWVKQAPGQGLEWIGEIFPRSGNTYYNEKFEGRATLTADKSTSTAYMELRSLRSEDTAVYYCAKGDLGDFDYWGQGTTVTVSS VL: DFVMTQTPLSLPVTPGEPASISCRSSQSIVHSDGNTYFEWYLQKPGQSPKLLIYKVSNRFSGVPDRFSGSGSGTDFTLKISRVEAEDVGVYYCFQGSHVPWTFGGGTKVEIKR |  |  | binds
5 | humanized antibody hAb017 (antibody, human IgG1, kappa, V domains shown) VH: EVQLVQSGAEVKKPGASVKVSCKASGYTFTTYGINWVKQAPGQGLEWIGEIYPRSGNIYYNEKFKGKATLTADKSTSTAYMELRSLRSDDTAVYYCARGSDYDGDFAYWGQGTLVTVSS VL: DVVMTQTPLSLPVTPGEPASISCRSSQSIVHHDGNTYLEWYLQKPGQSPQLLIYKVSNRFSGVPDRFSGSGSGTDFTLKISRVEAEDVGVYYCFQGSHVPWTFGGGTKVEIKR |  |  | binds
